Patent US8338616B2, “Thiazoliums and their use for treating protein aging associated diseases” (Beijing Molecule Science And Technology Co., Ltd., priority 2008, dated 2012)
Like-named read-outs stand apart in the source and are kept apart here.

How the values were obtained:
[1] = test system: diabetic rats; details: 4 weeks
Experimental: Rats were anesthetized with pentobarbital sodium injection (0.8%, 50 mg/kg), subjected to tracheal cannula, heparin anticoagulation, right common carotid artery cannula, communicated with Biopac physiological recorder via is pressure transducers to record blood pressure; subjected to thoracotomy at middle of sternum, separation of ascending aorta which was covered with pulse Doppler probe, and the pulse Doppler rheometer was linked to the Biopac physiological recorder for real-time recording and calculating hemodynamic parameters by the software of Biopac (Acknowledge, Version 3): systolic blood pressure (SBP), diastolic blood pressure (DBP), heart rate (HR), cardiac output
(CO), cardiac index (CI), total peripheral resistance (TPR), total peripheral resistance index (TPR Index), stroke volume (SV) and system arterial compliance (SAC), etc. After 10 min of postoperative stabilization, these parameters were recorded continuously, and mean values for 30 s were used as the measured values of these parameters.
Formula for calculating some of hemodynamic parameters: TPR=mean arterial pressure (MAP)/CO SAC=SV/(SBP−DBP)

[2] = test system: NaCl treated diabetic rats modeled with heart failure; details: 10 weeks
Experimental: Second batch: NaCl treated diabetic rats modeled with heart failure for 20 weeks and normal control rats synchronically and conventionally drinking water were divided into 5 groups: normal control rats synchronically and conventionally drinking water group (Normal Control), model control group (Model Control), the compound A group (ig, 9 mg/kg), the compound A group (ig, 36 mg/kg), administered with drug once per day for consecutive 10 weeks. The pharmacodynamic evaluation on left ventricular function was conducted by using a ventricular chatheterization method.
SPSS statistic software was used to analyze and treat data, and all data were expressed in mean±standard deviation (Mean±SD).

For `Cc1csc[n+]1CC(=O)O.[Na+]` [A, 3-carboxymethyl-4-methyl-thiazolium bromide sodium], the Body weight ([1]; 9 mg/kg i.g.) was 341 ± 27^ g, the Body weight ([1]; 18 mg/kg i.g.) was 344 ± 24^ g and the Body weight ([1]; 36 mg/kg i.g.) was 342 ± 28^ g. The Body weight ([2]; 9 mg/kg ig) was 282 ± 47 g and the Body weight ([2]; 36 mg/kg ig) was 299 ± 42 g.
